The results in this text go back to publication PMC8840930.

The assay has as its target T1, 3xHA-PTPN18, Q99952.
T1 chain: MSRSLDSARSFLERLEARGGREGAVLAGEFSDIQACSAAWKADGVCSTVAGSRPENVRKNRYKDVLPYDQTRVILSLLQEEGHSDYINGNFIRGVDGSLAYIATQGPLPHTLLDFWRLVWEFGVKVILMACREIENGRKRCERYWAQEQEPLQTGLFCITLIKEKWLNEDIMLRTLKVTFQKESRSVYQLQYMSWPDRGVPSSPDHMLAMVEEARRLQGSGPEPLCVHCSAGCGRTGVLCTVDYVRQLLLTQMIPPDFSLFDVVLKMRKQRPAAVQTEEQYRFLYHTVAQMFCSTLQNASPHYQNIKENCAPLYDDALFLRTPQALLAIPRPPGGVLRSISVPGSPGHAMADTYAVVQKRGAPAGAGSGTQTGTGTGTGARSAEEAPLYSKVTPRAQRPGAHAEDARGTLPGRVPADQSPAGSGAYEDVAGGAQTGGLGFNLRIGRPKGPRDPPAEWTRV
As to the kind of experiment: co-IP; HEK293 cells transfected with PSTPIP1 (wild type or mutant) and 3xHA-PTPN12 or 3xHA-PTPN18; IP anti-HA, immunoblot with PSTPIP1 antibody; TNE lysis buffer with 1% NP-40. Particulars: remark: other sources report otherwise. In general terms: Immunoblotting shows a protein as a band on a membrane.

No constants are given. Whether binding was seen depends on the method and setting. In cells and extracts the contact can be indirect. Some binding calls cover weakened binding; strength is not graded here. Where a sequence is shown, tags or fusion partners need not be part of it.

B1: PSTPIP1-V5 wild type, O43586 1-416 (protein)
chain: MMPQLQFKDAFWCRDFTAHTGYEVLLQRLLDGRKMCKDMEELLRQRAQAEERYGKELVQIARKAGGQTEINSLRASFDSLKQQMENVGSSHIQLALTLREELRSLEEFRERQKEQRKKYEAVMDRVQKSKLSLYKKAMESKKTYEQKCRDADDAEQAFERISANGHQKQVEKSQNKARQCKDSATEAERVYRQSIAQLEKVRAEWEQEHRTTCEAFQLQEFDRLTILRNALWVHSNQLSMQCVKDDELYEEVRLTLEGCSIDADIDSFIQAKSTGTEPPAPVPYQNYYDREVTPLTSSPGIQPSCGMIKRFSGLLHGSPKTTSLAASAASTETLTPTPERNEGVYTAIAVQEIQGNPASPAQEYRALYDYTAQNPDELDLSAGDILEVILEGEDGWWTVERNGQRGFVPGSYLEKL
On to B1, for which the binding entry is recorded as “binds”.
